Source: patent publication US20220009920A1 (GB005, Inc., priority 2020, published 2022)

Protein sequences, listed by entry. Tags and fused reporters are not part of them.
UniProt Q06187, whole entry: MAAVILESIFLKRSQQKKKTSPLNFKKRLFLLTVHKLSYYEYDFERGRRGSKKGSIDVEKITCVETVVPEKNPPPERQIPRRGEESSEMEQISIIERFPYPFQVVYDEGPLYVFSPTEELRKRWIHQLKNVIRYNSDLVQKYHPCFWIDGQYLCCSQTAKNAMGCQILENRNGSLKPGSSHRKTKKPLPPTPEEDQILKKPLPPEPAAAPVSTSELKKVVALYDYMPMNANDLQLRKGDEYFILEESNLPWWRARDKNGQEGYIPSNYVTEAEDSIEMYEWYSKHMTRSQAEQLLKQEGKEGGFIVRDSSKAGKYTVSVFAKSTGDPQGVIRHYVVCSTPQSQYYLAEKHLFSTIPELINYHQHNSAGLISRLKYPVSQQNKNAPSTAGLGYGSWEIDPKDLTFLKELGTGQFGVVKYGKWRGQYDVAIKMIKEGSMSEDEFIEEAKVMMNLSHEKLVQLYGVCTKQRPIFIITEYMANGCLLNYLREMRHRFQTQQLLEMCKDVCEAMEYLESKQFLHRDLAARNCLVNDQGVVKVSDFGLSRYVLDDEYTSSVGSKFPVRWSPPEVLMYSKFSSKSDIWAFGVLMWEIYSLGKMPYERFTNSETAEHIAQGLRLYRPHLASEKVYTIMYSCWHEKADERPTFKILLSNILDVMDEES

Experiments:
BTK = BTK (Homo sapiens, UniProt Q06187); assay: Assay to determine activity against BTK; conditions: read-out: BTK IC50; 1 mM ATP, 2 nM BTK, 90 minutes at room temperature
Description: Solutions of compounds (test or control) in DMSO were prepared at the desired concentrations, and serially diluted to 11 concentrations by 3-fold dilution in 384pp-plate using TECAN EVO200. 20 nL of stock were transferred to 384 plate using Echo550. DMSO was used as vehicle control.
Two separate solutions were prepared—an ATP solution containing MgCl2 (10 mM), Brij-35 (0.01%), DTT (2 mM), BSA (0.05%), EGTA (1 mM), HEPE (pH7.5) (50 mM), FLPeptide (6 uM) and ATP (4 mM); and a BTK solution containing MgCl2 (10 mM), Brij-35 (0.01%), DTT (2 mM), BSA (0.05%), EGTA (1 mM), HEPE (pH7.5) (50 mM) and BTK (2.67 nM). (BTK was obtained from Cama; FLPeptide2 was obtained from PerkinElmer and Ibrutinib was obtained from Selleck.) 5 μL of ATP solution were added to each well, followed by addition of 15 μL of BTK solution to initiate the reaction. (Note the final volume of each well was 20 μL containing MgCl2 (10 mM), Brij-35 (0.01%), DTT (2 mM), BSA (0.05%), EGTA (1 mM), HEPE (pH7.5) (50 mM), FLPeptide (1.5 uM), ATP (1 mM) and BTK (2 nM).
The plates were incubated at room temperature for 90 minutes and then stopping buffer added (75 μL, containing 0.5 M EDTA) to terminate the reaction. Samples from each well were analyzed using EZ reader. The % remaining activity was calculated using read conversion ratio (CR) according to the equation: […]

BTK in RAMOS B cells = assay: Assay to determine BTK activity in RAMOS B cells (anti-IgM, FLIPR Calcium 6); conditions: read-out: Ramos IC50, anti-IgM EC80, calcium readout
Description: On the day before assay, Ramos B cells were plated in plating medium (RPMI1640 medium containing 1% FBS and 1× pencillin-streptomycin). On the day of the assay, 2× dye solution was prepared following the manual of the FLIRP Calcium 6 Assay Kit: Dilute the dye with assay buffer (20 mM HEPES in IX HBSS, pH7.4); Add probenecid to the final concentration of 5 mM; vortex vigorously for 1-2 minutes. Cells were collected by centrifuging, and the pellet was re-suspended in plating medium. After counting, cells were re-suspended at a density of 3×10^6/ml in plating medium. Equal volume of 2× dye solution was added to the cell suspension. Cells were then plated at 20 μl/well into a 384-well poly-D-lysine coated plate. Plate was centrifuged at 1000 rpm for 3 minutes and then incubated at 37° C. for 2 hours followed by an additional 15-minute incubation at 25° C. Compounds were prepared at 3× concentration in dilution buffer (20 mM HEPES and 0.1% BSA in 1×HBSS, pH 7.4). Serially diluted compound was transferred from source plate to a 384-well compound plate by using an Echo 550 (Labcyte). 20 μl/well compound dilution buffer was added to the compound plate and mixed on plate shaker for 2 mins. 4× EC80 of Anti-IgM (Jackson ImmunoResearch) was prepared in dilution buffer and 20 μl/well was added to a new 384-well compound plate. […] Plates were read for 160 sec with 1 sec interval.

**Q.** Which results are given for `CC#CC(=O)N[C@H]1CCC=C(c2c(F)cc(C(N)=O)c3[nH]c4c(c23)CCCCC4)C1`?
**A.** IC50 (BTK): 10 to 100 nM; IC50 (BTK in RAMOS B cells): > 100 nM

The match of structure and compound is tentative.
